Laboratory results from PubChem BioAssay AID2685 (National Center for Advancing Translational Sciences (NCATS), 2010).
The other results are listed elsewhere or left out. Further columns of the screen follow, without active or inactive calls. Most of these compounds were active or inconclusive in the main read-out, so they are no random draw. Potencies come from curve fits of mixed quality, noted in brackets.

Test: qHTS Assay for Lipid Storage Modulators in Drosophila S3 Cells;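 on cell number change: cells counted by Cell Tracker Red CMTPX staining in the red channel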
Details: BODIPY lipid droplet fluorescence, 18-24 h; for cell number change: measured here: cell count max response, cells fed with added oleic acid
How it was run: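 Drosophila S3 cells loaded with oleic acid (400 uM, as added) and compounds at several concentrations; lipid droplets imaged by 488-nm laser-scanning cytometry, 500–530 nm intensity and object ratio to cell channel. Percent activity normalized to 20 uM Triacsin C.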

[1] = measured here: lipid fluorescence (Fed channel) AC50, cells fed with added oleic acid
[2] = measured here: cell number channel AC50, cells fed with added oleic acid

With `O=P(C(c1ccc2c(c1)OCO2)N1CCOCC1)(N1CCOCC1)N1CCOCC1` (stereo not given) the cell number change was 9.98% and the AC50 [1] was 25.9 µM [rising, single point].
For `COCc1c(CN)cnc(C)c1N`, the cell number change was 4.09% and the AC50 [1] was 5.17 µM [falling, full curve].
For `O=C(N/N=C1/CN2CCC1CC2)c1cccc(O)c1`, the cell number change was -32.9%, the AC50 [2] was 3.66 µM [falling, full curve, poor fit] and the AC50 [1] was 13 µM [falling, partial curve].
For `CCN1CCN(c2ccc(N)cc2)CC1`, the cell number change was -29.8% and the AC50 [1] was 32.6 µM [falling, single point].
In the case of `CC(=O)Nc1ccc(OC(=O)N(C)C)cc1`, the cell number change is reported as 0.223% and the AC50 [1] is reported as 0.058 µM [falling, full curve, poor fit].
In the case of `O=C1CN(C(=O)CN2CCCCC2)C(c2ccccc2)c2cc(Br)ccc2N1` (stereo not given), the cell number change is reported as -28.3% and the AC50 [1] is reported as 18.4 µM [falling, single point].
With `C1CC2OC2CC1C1CO1` (stereo not given) the cell number change was 14.6% and the AC50 [1] was 0.00731 µM [falling, full curve, poor fit].
With `COc1ccc(C)cc1NC1=NCCCS1` the cell number change was -124%, the AC50 [2] was 23.1 µM [falling, partial curve] and the AC50 [1] was 29.1 µM [falling, partial curve].
In the case of `c1ccc2c(c1)[nH]c1cnccc12`, the cell number change is reported as -5.27% and the AC50 [1] is reported as 16.4 µM [rising, partial curve].
In the case of `COC(=O)C1=C(c2ccc(F)cc2OCc2ccccc2)C[C@@H]2CC[C@H]1N2C(=O)NCc1ccc(C(C)(C)C)cc1`, the cell number change is reported as 0.0614% and the AC50 [1] is reported as 0.731 µM [rising, single point].
With `COCCNC(=O)N1[C@H]2CC[C@@H]1C(C(=O)OC)=C(c1ccc(OC(F)(F)F)cc1)C2` the cell number change was -3.62%, the AC50 [2] was 0.00461 µM [falling, full curve, poor fit] and the AC50 [1] was 0.00461 µM [falling, full curve, poor fit].
Work on `CCN(CC)C(=O)c1ccc(NC(=O)c2cc(-n3cnnc3)ccc2Cl)cc1` yielded a cell number change of 18.8%.
With `CC(C)(C)c1ccc(C(=O)C2CCCN(Cc3ccon3)C2)cc1` (stereo not given) the cell number change was -14.8% and the AC50 [1] was 14.6 µM [falling, partial curve].
With `CCC(C)n1c(O)c(/C=N/Nc2ccccc2)c(=O)[nH]c1=S` (stereo not given) the cell number change was 109% and the AC50 [2] was 5.8 µM [rising, full curve].
With `Cc1cc(-c2ccccc2)cc(-c2ccccc2)[n+]1CCc1ccccc1` the cell number change was -80.8%, the AC50 [2] was 5.8 µM [falling, full curve] and the AC50 [1] was 20.6 µM [falling, single point].
For `Cc1ccsc1CNCCc1ccc(F)cc1`, the AC50 [1] was 25.9 µM [rising, single point].
With `COc1cc(C(=O)Nc2ccc(Br)cc2C(=O)c2ccccc2Cl)cc(OC)c1OC` the cell number change was -2.16% and the AC50 [1] was 2.91 µM [rising, partial curve].
With `CCC(C)N=Cc1c(O)n(-c2ccccc2)c(=O)[nH]c1=O` (stereo not given) the cell number change was -87.2%, the AC50 [2] was 32.6 µM [falling, single point] and the AC50 [1] was 0.00517 µM [falling, full curve, poor fit].
Compound `CNC(=S)NC1CC2CCCC(C1)N2CC(C)C` (stereo not given) has a cell number change of -5.75%.
For `O=S1(=O)N(CCN2CC=C(c3c[nH]c4cc(F)ccc34)CC2)c2cccc3c2N1CCC3`, the cell number change was -10.1% and the AC50 [1] was 11.6 µM [falling, partial curve].
In the case of `Clc1ccccc1CNC1CN2CCC1CC2` (stereo not given), the cell number change is reported as -31.6%, the AC50 [2] is reported as 0.461 µM [falling, full curve, poor fit] and the AC50 [1] is reported as 3.26 µM [falling, partial curve, poor fit].
For `CN1C(=O)C(c2ccc([N+](=O)[O-])cc2[N+](=O)[O-])C(=O)N(C)C1=O`, the cell number change was 21.9% and the AC50 [1] was 5.8 µM [rising, partial curve].
In the case of `COc1ccc(Br)cc1CNCCc1cccc(Cl)c1`, the cell number change is reported as -36% and the AC50 [2] is reported as 8.2 µM [falling, partial curve, poor fit].
With `COc1ccc(CCNCc2ccc(C)s2)cc1OC` the cell number change was 32.3%, the AC50 [2] was 0.146 µM [rising, full curve, poor fit] and the AC50 [1] was 29.1 µM [rising, single point].
In the case of `O=Cc1cn(Cc2ccc(F)cc2)c2ccccc12`, the cell number change is reported as -14.1% and the AC50 [1] is reported as 18.4 µM [rising, partial curve].
With `O=c1cccc2n1CC1CC2CN(Cc2cccc(Cl)c2Cl)C1` (stereo not given) the cell number change was -15.6% and the AC50 [1] was 0.517 µM [falling, full curve, poor fit].
Compound `CC(C)(C)C(=O)Nc1ccc(S(=O)(=O)N2CC3CC(C2)c2cccc(=O)n2C3)cc1` (stereo not given) has a cell number change of 9.09%.
In the case of `Nc1cnn(-c2ccccc2)c(=O)c1Cl`, the cell number change is reported as -10.6% and the AC50 [1] is reported as 0.13 µM [falling, full curve, poor fit].
For `CC(=O)N1CC(=O)Nc2ccc(Cl)cc2C1c1ccc(F)cc1` (stereo not given), the cell number change was 15.1% and the AC50 [1] was 0.0517 µM [falling, full curve, poor fit].
In the case of `OCCNCCc1c[nH]c2ccc(OCc3ccccc3)cc12`, the cell number change is reported as -19.4% and the AC50 [1] is reported as 2.31 µM [rising, partial curve].
For `CC(C)C(=O)Nc1ccc(S(=O)(=O)N2CC3CC(C2)c2cccc(=O)n2C3)cc1` (stereo not given), the cell number change was 24.5% and the AC50 [1] was 16.4 µM [falling, single point].
With `Oc1ccc(Br)cc1CN1CCN(c2ccccc2)CC1` the cell number change was 0.463% and the AC50 [1] was 0.651 µM [falling, full curve, poor fit].
With `COc1c(C=C2C(=O)NC(=O)NC2=O)c(CCN(C)C(=O)c2ccccc2)cc2c1OCO2` the cell number change was -4.94% and the AC50 [1] was 6.51 µM [falling, full curve, poor fit].
With `CC(C)CNC(=O)c1c(N)n(Cc2ccco2)c2nc3ccccc3nc12` the cell number change was -76% and the AC50 [2] was 29.1 µM [falling, single point].
In the case of `NC12CN3CN(CN(C3)C1)C2` (tested in a mixture with another compound), the cell number change is reported as 0.816% and the AC50 [1] is reported as 23.1 µM [falling, partial curve].
In the case of `CN1C(=O)C(=Cc2ccc(N3CCOCC3)o2)C(=O)N(C)C1=O`, the cell number change is reported as -7.23%.
For `CNCC1(c2ccccc2)CCCC1`, the cell number change was 32.6%, the AC50 [2] was 1.46 µM [rising, partial curve, poor fit] and the AC50 [1] was 6.51 µM [rising, single point].
For `COC(=O)c1c(C)n(Cc2ccccc2)c2ccc(O)cc12`, the cell number change was 6.56% and the AC50 [1] was 0.231 µM [rising, full curve, poor fit].
For `O=[N+]([O-])c1cccc(CN2CCN(Cc3ccc(Br)cc3)CC2)c1`, the cell number change was 29.3% and the AC50 [2] was 0.116 µM [falling, partial curve, poor fit].
With `c1ccc2c(CCNCc3ccc4c(c3)OCO4)c[nH]c2c1` the cell number change was -21.7% and the AC50 [1] was 29.1 µM [falling, single point].
With `COc1cc2occc2c2oc(=O)ccc12` the AC50 [1] was 1.46 µM [rising, full curve].
For `O=C(CCNC(=O)N1C[C@H]2C[C@@H](C1)c1cccc(=O)n1C2)Nc1cccc(Cl)c1`, the cell number change was 14.8% and the AC50 [2] was 0.731 µM [rising, full curve, poor fit].
In the case of `COc1ccccc1CN1CCCCC1c1cccnc1` (stereo not given), the AC50 [2] is reported as 1.64 µM [rising, partial curve, poor fit] and the AC50 [1] is reported as 3.66 µM [rising, full curve].
For `CCCCc1nc(N2CCNCC2)c(C#N)c2c1CSC(C)(C)C2`, the AC50 [1] was 0.58 µM [rising, single point].
With `COC(=O)CN1C(=O)C2(C(C(=O)OC)=C(N)Oc3ccccc32)C2=C1CC(C)(C)CC2=O` (stereo not given) the AC50 [1] was 6.51 µM [falling, single point].
For `O=C(c1ccc(N2CCCCCC2)c([N+](=O)[O-])c1)N1CCC2(CC1)OCCO2`, the cell number change was 13% and the AC50 [1] was 0.731 µM [falling, single point].
For `CN1CCN(c2ccc(C(N)=O)cc2N)CC1`, the cell number change was 4.23% and the AC50 [1] was 0.092 µM [falling, full curve, poor fit].
With `CN1CCN(Cc2nc3ccccc3n2C)CC1` the cell number change was -2.78% and the AC50 [1] was 0.00517 µM [falling, full curve, poor fit].
For `CN1C(=O)N(C)C(=O)C2(Cc3cc(NC(=O)c4ccccc4Cl)ccc3N3CCCC32)C1=O` (stereo not given), the cell number change was 2.65%, the AC50 [2] was 2.06 µM [rising, partial curve] and the AC50 [1] was 29.1 µM [rising, partial curve, poor fit].
For `O=c1oc2ccccc2c(O)c1C(c1ccc([N+](=O)[O-])cc1)c1c(O)c2ccccc2oc1=O`, the cell number change was -13.3%, the AC50 [2] was 1.84 µM [falling, single point] and the AC50 [1] was 4.11 µM [falling, single point].
With `O=c1cc(C(F)(F)F)c2cc3c4c(c2o1)CCCN4CCC3` the cell number change was -62.3%, the AC50 [2] was 16.4 µM [falling, single point] and the AC50 [1] was 20.6 µM [falling, single point].
With `CCCOc1ccc(C(=O)NC(=S)N2C[C@H]3C[C@H](C2)c2cccc(=O)n2C3)cc1` the cell number change was 34.6%, the AC50 [2] was 36.6 µM [rising, partial curve, poor fit] and the AC50 [1] was 0.231 µM [rising, full curve, poor fit].
In the case of `Cc1ccc(/C=C2\C(=O)NC(=O)N(CC3CCCO3)C2=O)s1` (stereo not given), the cell number change is reported as -11%.
For `C(#CCN1CCOCC1)COCc1ccccc1`, the cell number change was 39.1% and the AC50 [2] was 3.26 µM [rising, full curve, poor fit].
For `O=C1c2ccccc2C(=O)N1Cc1nc2ccccc2c(=O)n1-c1cccnc1`, the AC50 [2] was 0.82 µM [rising, full curve] and the AC50 [1] was 0.731 µM [rising, single point].
With `C/C=C(\C)C(=O)N[C@@H](c1ccccc1)[C@@H](O)C(=O)O[C@H]1C[C@@]2(O)[C@@H](OC(=O)c3ccccc3)C3[C@](C)(C(=O)[C@H](O)C(=C1C)C2(C)C)[C@@H](O)C[C@H]1OC[C@@]31OC(C)=O` (stereo not given in full) the cell number change was 1.45% and the AC50 [1] was 6.51 µM [falling, single point].
